The list shows a part of the results. The main result of the screen is listed elsewhere. These columns were measured beside it and carry no call. Most of these compounds were active or inconclusive in the main read-out, so they are no random draw. Words in brackets tell the shape of the fitted curve; partial curves, single points and poor fits give uncertain potencies.
Assay: qHTS Assay to Find Inhibitors of Chronic Active B-Cell Receptor Signaling
Settings: ABC-DLBCL IkBa-CBG/CBR reporter, luminescence ratio (green luciferase fused to IkBa over red control in TMD8 lymphoma cells), 4 h
How it was run: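 Concentration-response series (up to 46 uM) were applied to TMD8 dual-reporter cells for 4 h at 37C with doxycycline. Green/red ratio, after filter-overlap correction, defined %Activity; red signal alone was normalised to basal cells and zero luminescence.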

[1] = measured here: CBR red luminescence, cell number

Compound	AC50 [1]	AC50 (measured here: IkBa-CBG green luminescence)
CCN(CC)c1ccc2oc(=O)c(C)nc2c1	16.4 µM [falling, single point]	–
O=C1NC(=Nc2cccnc2)S/C1=C\c1cccc(F)c1	35.5 µM [falling, single point]	–
COc1ccc(-c2nc3ccccc3nc2-c2ccc(OC)c(OC)c2)cc1OC	1.12 µM [rising, full curve, poor fit]	–
COCCNC(=O)c1ccccc1NS(=O)(=O)c1ccc(Br)s1	0.58 µM [falling, full curve, poor fit]	–
CCCn1nc(C(=O)N2CCN(c3ccccn3)CC2)c2ccccc2c1=O	6.51 µM [rising, single point]	–
Nc1nc2ccc(Oc3ccccc3)cc2s1	0.461 µM [rising, full curve, poor fit]	–
Cc1ccnc(NC(=O)C2CCC(CNc3c(N4CCCC4)c(=O)c3=O)CC2)c1 (stereo not drawn)	29.1 µM [falling, single point]	–
COc1ccc(/C=C2\SC(=S)N(CC(=O)N(C)C3CCS(=O)(=O)C3)C2=O)cc1 (stereo not drawn)	15.8 µM [falling, single point]	–
Cc1ccc(NC(=O)CNC(=O)c2cccs2)cc1S(=O)(=O)Nc1ccc(Cl)cc1	2.06 µM [rising, single point]	–
COc1ccccc1C(=O)CSc1cccc[n+]1[O-]	35.5 µM [falling, single point]	–
CC(C)(C)OC(=O)C1C(=O)CC(C)(O)C(C(=O)OC(C)(C)C)C1c1cccnc1 (stereo not drawn)	29.1 µM [falling, partial curve, poor fit]	–
CCOC(=O)c1oc2cccc(OCC(O)CNC(C)C)c2c1C (stereo not drawn)	18.4 µM [falling, partial curve]	–
Cc1ccc(Cn2ccc(NC(=O)c3cc(-c4ccccc4)on3)n2)cc1	2.31 µM [falling, full curve]	–
COc1ccc(-c2coc3c(CN4CCOCC4)c(O)ccc3c2=O)cc1	35.5 µM [rising, single point]	–
N#Cc1c(SCc2ccc(Cl)cc2)sc(C(=O)c2ccccc2)c1N	10 µM [rising, partial curve, poor fit]	–
CCN1C(N(C)CCc2c[nH]c3ccccc23)=N[C@@H](c2cccc(C(F)(F)F)c2)C(C(=O)OC)=C1C	29.1 µM [falling, single point]	–
Cn1nc(C(=O)Nc2nc3ccccc3[nH]2)c2ccccc2c1=O	2.91 µM [falling, full curve]	–
O=C(Nc1cccc(S(=O)(=O)N2CCOCC2)c1)c1ccc(Cl)nc1	25.9 µM [falling, single point]	–
COc1cccc(C(=O)COc2cccc(NC(=O)c3ccco3)c2)c1	8.91 µM [falling, partial curve, poor fit]	–
O=C(N/N=C/c1ccc(-c2cccc([N+](=O)[O-])c2)o1)c1ccc([N+](=O)[O-])cc1	12.6 µM [rising, partial curve, poor fit]	–
CC(C)/C=N/NC(=O)c1cccc(N2CCCC2=O)c1	29.1 µM [falling, single point]	–

Compound	AC50 [1]	AC50 (measured here: IkBa-CBG green luminescence)
CC(C)CNC(=S)N(CCN(C)C)Cc1cc2cc3c(cc2[nH]c1=O)OCCO3	17.8 µM [falling, single point]	–
O=C1[C@@H]2Cc3c([nH]c4ccccc34)CN2C(=O)CN1CCO	15.8 µM [rising, single point]	–
Cc1nnc(NCc2cccc(Cl)c2)c2ccccc12	22.4 µM [falling, single point]	–
CN(C)CCCN(C(=O)COc1ccccc1)c1nc2cc3c(cc2s1)OCCO3	1 µM [falling, full curve, poor fit]	–
O=c1[nH]n(CC2COC3(CCCCC3)O2)c(=O)c2ccccc12 (stereo not drawn)	0.794 µM [rising, full curve, poor fit]	–
COc1ccc(-c2nc3c4ccccc4ccn3c2C=O)cc1	0.282 µM [rising, full curve, poor fit]	–
O=c1c2ccccc2nc(-c2ccco2)n1/N=C/c1ccco1	7.08 µM [falling, partial curve]	–
Cc1cccc(NS(=O)(=O)c2cc3c4c(c2)CCC(=O)N4CCC3)c1	32.6 µM [falling, single point]	–
Cc1ccc(-c2nn(-c3ccccc3)cc2/C=C/C(=O)Nc2cccc(S(N)(=O)=O)c2)cc1	12.6 µM [falling, single point]	–
Cc1ccc(N(C)C(=O)N2CCN(c3ccccn3)CC2)cc1	2.06 µM [rising, partial curve, poor fit]	–
CC1CCN(CCc2nc3cc(NC(=O)COc4ccc([N+](=O)[O-])cc4)ccc3n2C)CC1	0.447 µM [falling, full curve, poor fit]	–
COc1cc(/C=N/NC(=O)c2cncc(Br)c2)cc([N+](=O)[O-])c1O	12.6 µM [falling, single point]	–
C=CCNC(=O)CSc1nnc(-c2ccccn2)n1Cc1ccccc1	0.501 µM [rising, full curve, poor fit]	–
COc1ccc2oc(=O)c(C(=O)NCc3ccc4c(c3)OCO4)cc2c1	5.8 µM [rising, full curve, poor fit]	–
Cc1cccc(OCC(=O)N2CCC(c3ccccc3)C2)c1 (stereo not drawn)	1.64 µM [rising, full curve, poor fit]	–
COc1ccc2nc(N3C(=O)CC(Cc4ccc(C)cc4)C3=O)sc2c1 (stereo not drawn)	0.0013 µM [rising, full curve, poor fit]	–
C/C(=C1/SC(=S)N(CCC(=O)O)C1=O)c1ccc(O)cc1	0.0291 µM [falling, full curve, poor fit]	–
C/C(=N\NC(=O)CSCc1ccccc1Cl)c1cccc(NC(=O)c2ccccc2)c1	29.1 µM [rising, single point]	–
COc1ccc(-c2nnn(-c3ccc(Cl)cc3Cl)c2N)cc1	3.16 µM [rising, partial curve, poor fit]	–
COc1ccc2oc(C(=O)OCC(=O)N(C)CC(=O)Nc3ccc(C)cc3)c(C)c2c1	16.4 µM [rising, partial curve]	–
Fc1ccc2nc(Nc3nc4c(F)cc(F)cc4s3)sc2c1	5.17 µM [falling, single point]	–

Compound	AC50 [1]	AC50 (measured here: IkBa-CBG green luminescence)
C/C(=N\NC(=O)CC#N)c1cc2ccc(O)cc2oc1=O	15.8 µM [falling, single point]	–
O=C(Nc1ccn(-c2ccccc2)n1)c1ccccc1Br	5.17 µM [falling, partial curve]	–
Cc1c(CC(=O)N[C@@H](C)C(=O)O)c(=O)oc2cc3occ(-c4ccccc4)c3cc12	3.98 µM [rising, full curve, poor fit]	–
Cc1cccc(NC(=O)Nc2ccc3c(c2)OCO3)n1	22.4 µM [falling, single point]	–
CCN(CC)CCN1C(=O)C(=O)/C(=C(/O)c2ccc(OC)cc2)C1c1ccco1 (stereo not drawn)	12.6 µM [rising, partial curve]	–
COc1ccc(-c2[nH]ncc2/C=N/NC(=O)c2cc(Br)ccc2O)c(OC)c1	2.06 µM [falling, full curve]	–
Cc1cc(OCC(=O)O/N=C(\N)c2ccccc2)cc(C)c1Cl	2.51 µM [rising, partial curve]	–
COc1cc(C#Cc2c(-c3ccccc3OC)oc3ccccc23)cc(OC)c1	18.4 µM [rising, single point]	–
C[C@@H]1CN([C@H](C)CO)C(=O)c2cccc(NC(=O)NC3CCCCC3)c2O[C@@H]1CN(C)C(=O)Nc1ccc(C(F)(F)F)cc1	23.1 µM [falling, partial curve, poor fit]	–
COc1cc(/C=C/C(=O)c2ccc(NS(=O)(=O)c3ccc(C)cc3)cc2)ccc1OC(F)F	29.1 µM [falling, single point]	–
O=C(CCCN1C(=O)/C(=C\c2cccs2)SC1=S)Nc1ccc(C(=O)O)cc1	17.8 µM [falling, partial curve, poor fit]	–
O=C(CSc1nc2c([nH]c3ccccc32)c(=O)n1-c1ccccc1F)NCC1CCCO1 (stereo not drawn)	35.5 µM [falling, single point]	–
NC(=O)C1CCN(C(=S)c2ccc(-c3ccc(Br)cc3)o2)CC1	2.51 µM [rising, full curve]	–
Cc1nnc(-c2ccccc2)c(=O)n1/N=C/c1c(O)ccc2ccccc12	3.55 µM [falling, partial curve, poor fit]	–
CCOC(=O)Cn1c(CN(Cc2ccccc2)Cc2ccccc2)nc2c1c(=O)[nH]c(=O)n2C	35.5 µM [falling, single point]	–
N#Cc1nc(-c2ccccc2Cl)oc1N1CCCCC1	25.1 µM [rising, single point]	–
COc1cccc(C2=CC(c3ccc(N(C)C)cc3)n3ncnc3N2)c1 (stereo not drawn)	11.2 µM [falling, partial curve]	–
Cc1nn(Cc2ccc(Cl)cc2)c(C)c1NC(=O)C(c1ccccc1)c1ccccc1	7.31 µM [falling, partial curve]	–
CCOC(=O)c1ccc(N2C(=O)c3n[nH]c(C)c3C2c2ccco2)cc1 (stereo not drawn)	17.8 µM [falling, single point]	–
CC[C@]12c3[nH]c4ccc(Cl)cc4c3CCN1C(=O)[C@@H](CC(=O)NCC13CC4CC(CC(C4)C1)C3)C[C@@H]2C(=O)N1CCN(C(=O)c2ccco2)CC1	2.91 µM [falling, full curve]	4.61 µM [rising, full curve, poor fit]

Retrieved one by one from the list above (two):
Compound	AC50 [1]	AC50 (measured here: IkBa-CBG green luminescence)
Cc1cc(OCC(=O)O/N=C(\N)c2ccccc2)cc(C)c1Cl	2.51 µM [rising, partial curve]	–
COc1cc(C#Cc2c(-c3ccccc3OC)oc3ccccc23)cc(OC)c1	18.4 µM [rising, single point]	–

From PubChem BioAssay AID493014 (National Center for Advancing Translational Sciences (NCATS), 2011)
